Source: patent publication US11951202B2, “Compounds and compositions for use” (DR WELLER LIMITED, priority 2016, dated 2024)

System: full thickness human skin homogenate
Assay: In vitro NO generation by NO specific Clarke-type electrode, UVA-irradiated skin homogenate
Assay type: biochemical
Conditions: UVA radiation, nitrite source
Description: Electrochemical sensors are widely used for the measurement of NO generation and Clark-type electrodes are most widely used as they are commercially available and easy to handle. The principle of these sensors is that NO diffuses through a gas-permeable membrane and a thin film of electrolyte, followed by oxidation on the working electrode. This oxidation creates a current that is proportional to the concentration of NO outside the membrane. The advantage of electrochemical NO sensors is the ability to directly detect NO concentration in solution or in biological samples with a low nanomolar detection limit. This makes NO electrodes an excellent tool for studying NO generation especially in biological samples.
We used the Clarke electrode technique to investigate the mechanism of UVA light dependent NO generation in skin and cosmetically acceptable components which could facilitate augment the endogenous process.
A 10% (g/mL) full thickness human skin homogenate in phosphate buffer was prepared using a glass/glass homogenizer. The homogenate was preheated at 56° C. for 1 hour to inactivate enzymatic generation of NO.
200 ul of homogenate was placed in a quartz cuvette in a thermostatically controlled environment and irradiated with broadband (320-400 nm) UVA radiation. Baseline signals were recorded. […]

SMILES: CC(C)(CO)[C@@H](O)C(=O)NCCC(=O)NCCSSCCNC(=O)CCNC(=O)[C@H](O)C(C)(C)CO [Pantethine, reference compound]
- sustained UV induced NO generation from nitrite: ineffective
